Hit rate of the full screen: of about 320,000 compounds, about 22,000 (6.9%) were called active. Inconclusive means that the source gave no clear call. Such entries were picked first, then a sample of the others. Calls come from the whole dose curve; as a rule, active = well fitted inhibition curve with a large enough effect; inconclusive = small, poorly fitted or top-dose-only effect, or another doubt; inactive = no such curve, though single readings can be large or run the other way. A potency beside an inconclusive call is a rough fit, not a confirmed value.
assay: Primary qHTS for delayed death inhibitors of the malarial parasite plastid, 96 hour incubation; details: P. falciparum luciferase reporter growth; series mostly up to 28.7 µM; activity change, negative = inhibition: at the top concentration
In short: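 Readout is luminescence from an integrated firefly luciferase in P. falciparum. Red cells, 2% hematocrit and 0.05% parasitemia final, were cultured with compound through two parasite generations (96 hours) at 37 C, 5% CO2.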
% is set by controls: 0 for no effect and ±100 for the full control effect; potency is the fitted concentration of half-maximal effect.

Row | Structure (SMILES) | activity change, negative = inhibition | Potency
1 | NS(=O)(=O)c1ccc(CNC(=O)c2ccc(S(=O)(=O)NCc3ccco3)cc2)cc1 | inactive: 2.8% | 
2 | COc1cc(CNCC2CCCO2)ccc1OCC(N)=O (configuration not stated) |  | inconclusive: 7.38 µM [inhibitor, partial curve]
3 | C=CCSc1nnc(N2C(=O)C(O)=C(C(=O)c3ccco3)C2c2ccc(F)cc2)s1 (configuration not stated) |  | inconclusive: 3.29 µM [inhibitor, partial curve]
4 | Cn1nnnc1SCC(=O)Nc1ccc(S(=O)(=O)N2CCOCC2)cc1 | inactive: -21.1% | 
5 | CCOC(=O)c1cnc2c(F)ccc(F)c2c1Sc1ccccc1 |  | inconclusive: 18.5 µM [inhibitor, single point]
6 | COc1cc(NC(=O)c2ccc(Br)cc2)c(OC)cc1NC(=O)c1ccccc1 |  | inconclusive: 9.28 µM [inhibitor, partial curve, poor fit]
7 | CCn1cc(C(=O)N2CCc3ccccc32)c(=O)c2cc(S(=O)(=O)N3CC(C)CC(C)C3)ccc21 (configuration not stated) |  | inconclusive: 1.04 µM [inhibitor, partial curve, poor fit]
8 | O=C(Cc1cccc(NC(=O)C2CCCN(C(=O)C3CC3)C2)c1)Nc1cccc(C(=O)N2CCCC2)c1 (configuration not stated) |  | inconclusive: 2.33 µM [inhibitor, full curve]
9 | COc1ccc(-c2csc(NC(=O)c3ccc(S(=O)(=O)N4CCc5ccccc5C4)cc3)n2)c(OC)c1 |  | inconclusive: 5.86 µM [inhibitor, partial curve, poor fit]
10 | CCOC(=O)N/N=C/c1ccccc1OCc1ccc(Cl)cc1 |  | active: 2.08 µM
11 | Cc1ccc(C)c(OCCC(=O)Nc2cccc(S(=O)(=O)N3CCCCC3)c2)c1 |  | inconclusive: 13.1 µM [inhibitor, partial curve, poor fit]
12 | [O-]/C(=C(\C(=S)Nc1cccc2ccccc12)[n+]1ccccc1)c1ccc(Cl)s1 |  | inconclusive: 14.7 µM [inhibitor, partial curve, poor fit]
13 | COc1ccc(NC(=O)c2cccc(S(=O)(=O)N3CCCCC3)c2)c(OC)c1 |  | active: 2.94 µM
14 | COc1ccc(/C=C2/SC(=S)N(CCCC(=O)Nc3ccc(O)cc3)C2=O)cc1 |  | inconclusive: 6.57 µM [inhibitor, partial curve]
15 | Cc1ccc(N2CCN(C(=O)C3CCCN(c4ncnc5c4nc4n5CCCCC4)C3)CC2)c(C)c1 (configuration not stated) |  | active: 14.7 µM
16 | O=C(/C=C/c1ccccc1)c1c(O)n(CCc2ccccc2)c(=O)[nH]c1=O | inactive: 28.4% | 
17 | CN1CCN(/N=C/c2nc(-c3ccccc3Cl)n3ccccc23)CC1 |  | inconclusive: 9.28 µM [inhibitor, single point]

Ordered by heavy-atom count (rising): some entries from above
Row | Structure (SMILES) | activity change, negative = inhibition | Potency
5 | CCOC(=O)c1cnc2c(F)ccc(F)c2c1Sc1ccccc1 |  | inconclusive: 18.5 µM [inhibitor, single point]
13 | COc1ccc(NC(=O)c2cccc(S(=O)(=O)N3CCCCC3)c2)c(OC)c1 |  | active: 2.94 µM
1 | NS(=O)(=O)c1ccc(CNC(=O)c2ccc(S(=O)(=O)NCc3ccco3)cc2)cc1 | inactive: 2.8% | 
